Test [1] deals with T1, SKI family transcriptional corepressor 1 (SKOR1) (mouse (endogenous in 3T3-L1 adipocytes and AML12 cells)) (UniProt Q8BX46).
T1 sequence: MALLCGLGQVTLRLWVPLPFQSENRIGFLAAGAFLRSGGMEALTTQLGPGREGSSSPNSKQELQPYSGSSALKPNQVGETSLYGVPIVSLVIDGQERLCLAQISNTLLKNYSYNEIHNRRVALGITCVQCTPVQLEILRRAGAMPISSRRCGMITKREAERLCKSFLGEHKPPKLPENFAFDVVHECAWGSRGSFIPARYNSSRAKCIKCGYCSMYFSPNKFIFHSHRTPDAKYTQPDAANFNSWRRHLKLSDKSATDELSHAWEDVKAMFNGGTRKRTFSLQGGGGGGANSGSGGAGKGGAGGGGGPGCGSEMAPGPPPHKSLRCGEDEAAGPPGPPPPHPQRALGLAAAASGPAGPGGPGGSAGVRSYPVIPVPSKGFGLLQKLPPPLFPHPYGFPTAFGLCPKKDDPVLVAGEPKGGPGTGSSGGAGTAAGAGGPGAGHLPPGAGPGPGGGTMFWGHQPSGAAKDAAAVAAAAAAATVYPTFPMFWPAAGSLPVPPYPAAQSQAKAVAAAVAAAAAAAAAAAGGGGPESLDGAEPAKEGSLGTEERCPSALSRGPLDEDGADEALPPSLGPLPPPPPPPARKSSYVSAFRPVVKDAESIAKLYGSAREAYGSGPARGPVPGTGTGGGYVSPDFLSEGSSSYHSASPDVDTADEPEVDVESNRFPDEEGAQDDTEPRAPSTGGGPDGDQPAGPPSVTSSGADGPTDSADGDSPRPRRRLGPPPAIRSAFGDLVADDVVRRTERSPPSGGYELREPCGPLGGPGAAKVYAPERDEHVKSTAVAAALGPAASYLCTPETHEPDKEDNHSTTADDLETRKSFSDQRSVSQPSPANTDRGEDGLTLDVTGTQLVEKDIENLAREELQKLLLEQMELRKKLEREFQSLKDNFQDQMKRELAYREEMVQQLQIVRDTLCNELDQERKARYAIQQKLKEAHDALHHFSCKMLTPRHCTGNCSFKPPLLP
Nature of the test: co-IP; reciprocal IP with anti-SKOR1 or anti-SMAD6 antibody from RIPA lysates of 3T3-L1 adipocytes or AML12 cells; Protein A/G agarose beads, overnight at 4 °C; beads washed thrice with ice-cold PBS; immunoblot. (A western blot detects proteins with antibodies after separation by electrophoresis.)

For test [2], the target named is T2, SMAD family member 6 (SMAD6) (mouse (endogenous in 3T3-L1 adipocytes and AML12 cells)) (UniProt O35182).
T2 sequence: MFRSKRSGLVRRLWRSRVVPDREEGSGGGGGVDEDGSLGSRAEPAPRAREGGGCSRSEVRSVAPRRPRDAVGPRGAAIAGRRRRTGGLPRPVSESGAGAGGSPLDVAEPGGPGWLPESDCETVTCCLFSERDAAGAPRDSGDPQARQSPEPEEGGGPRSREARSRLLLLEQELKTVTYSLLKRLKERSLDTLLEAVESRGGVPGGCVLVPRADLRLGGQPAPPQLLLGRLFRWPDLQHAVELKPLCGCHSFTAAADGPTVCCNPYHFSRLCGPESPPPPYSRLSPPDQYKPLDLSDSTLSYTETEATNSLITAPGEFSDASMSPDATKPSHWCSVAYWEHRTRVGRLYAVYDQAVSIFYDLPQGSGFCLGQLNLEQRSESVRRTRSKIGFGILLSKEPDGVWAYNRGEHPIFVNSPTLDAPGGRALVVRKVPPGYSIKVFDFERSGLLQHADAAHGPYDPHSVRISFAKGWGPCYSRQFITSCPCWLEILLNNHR
Described as above.

Results are given in words; binding and its absence hold for the method and conditions named. In cells and extracts the contact can be indirect. Some entries that bind do so weakly or less than the wild type.

Experimental findings from paper PMC8632983 are described below.

B1: SMAD family member 6 (SMAD6) (protein, UniProt O35182 1-495)
chain: T2 sequence
With B1, the binding result in test [1] is on record as “binds”.

B2: SKI family transcriptional corepressor 1 (SKOR1) (protein, UniProt Q8BX46 1-964)
chain: T1 sequence
Take B2: the binding entry in test [2] is given as “binds”.
